Results deposited as PubChem BioAssay AID652272 (Drosophila RNAi Screening Center, 2013)
Assay: 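Genes whose knock-down decreases or increases Hedgehog reporter output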 (primary screen). System: Drosophila clone 8 (Cl8) cells. Knock-down reagent: long dsRNA against Drosophila genes. Measurement: 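Firefly light from a Hedgehog-responsive ptc promoter reporter and Renilla reference light, both read on a plate reader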. Direction: firefly Hh reporter signal: higher = more ptc reporter light; Renilla reference signal: higher = more Renilla control light. Call rule: 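Hit when the z-score averaged over two replicates is under -2 or over +3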. Meaning of the calls: active = hit: reporter lowered or raised; inactive = not a hit.
The screen tested about 21,000 reagents; shown is an unselected part of those with a known target gene and a result. Of all reagents, 503 (2.4%) are marked active. 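Raw plate light values, not normalised; calls rest on replicate z-scores that were not deposited; hits include reporter decreases as well as increases.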 Not stated in the record: the amount of reagent, the time to read-out.

| predicted target | amplicon | firefly Hh reporter signal, replicate 1 | firefly Hh reporter signal, replicate 2 | Renilla reference signal, replicate 1 | Renilla reference signal, replicate 2 | Call |
| --- | --- | --- | --- | --- | --- | --- |
| CG7409 | DRSC10842 | 49509 | 66444 | 5227 | 4346 | inactive |
| xit | DRSC18364 | 80851 | 58240 | 1768 | 1281 | inactive |
| CG5565 | DRSC00690 | 1.02e5 | 76146 | 2534 | 1920 | inactive |
| lbm | DRSC07643 | 75538 | 45848 | 1929 | 4361 | inactive |
| Adar | DRSC17725 | 76202 | 2.32e5 | 2404 | 9837 | inactive |
| CG1233 | DRSC08269 | 83830 | 58997 | 3340 | 2157 | inactive |
| CG2121 | DRSC06819 | 84807 | 94904 | 3432 | 3728 | inactive |
| CG2121 | DRSC06820 | 1.21e5 | 55900 | 3242 | 5305 | inactive |
| CG10761 | DRSC17753 | 1.08e5 | 2.67e5 | 4064 | 9489 | inactive |
| CG32579 | DRSC19872 | 1.13e5 | 2.07e5 | 3755 | 7837 | inactive |
| fwd | DRSC08580 | 51592 | 46880 | 3095 | 2372 | inactive |
| CHMP2B | DRSC10436 | 1.29e5 | 84632 | 4784 | 2992 | inactive |
| l(3)05822 | DRSC16202 | 1.24e5 | 94672 | 5110 | 4045 | inactive |
| Phyhd1 | DRSC14911 | 1.37e5 | 1.25e5 | 4896 | 3844 | inactive |
| RpS19b | DRSC15773 | 58160 | 4.19e5 | 2880 | 25554 | active |
| Usp1 | DRSC14155 | 98371 | 1.33e5 | 2291 | 3564 | inactive |
| CG13135 | DRSC02232 | 1.14e5 | 40627 | 3169 | 4752 | inactive |
| CG16820 | DRSC02522 | 1.42e5 | 87329 | 5977 | 3888 | inactive |
| Ns2 | DRSC06993 | 86856 | 71571 | 4739 | 3557 | inactive |
| Roc2 | DRSC07313 | 1.12e5 | 67271 | 2746 | 5424 | inactive |
| bel | DRSC16555 | 1.00e5 | 1.45e5 | 1952 | 2090 | active |
| beta-Man | DRSC12208 | 1.24e5 | 98956 | 4759 | 4087 | inactive |
| beta-Man | DRSC12209 | 1.33e5 | 1.71e5 | 4608 | 4868 | inactive |

In a second layout: 3 of the entries above
CG13135 [DRSC02232]: firefly Hh reporter signal, replicate 1 = 1.14e5; firefly Hh reporter signal, replicate 2 = 40627; Renilla reference signal, replicate 1 = 3169; Renilla reference signal, replicate 2 = 4752; Call = inactive
CG16820 [DRSC02522]: firefly Hh reporter signal, replicate 1 = 1.42e5; firefly Hh reporter signal, replicate 2 = 87329; Renilla reference signal, replicate 1 = 5977; Renilla reference signal, replicate 2 = 3888; Call = inactive
Ns2 [DRSC06993]: firefly Hh reporter signal, replicate 1 = 86856; firefly Hh reporter signal, replicate 2 = 71571; Renilla reference signal, replicate 1 = 4739; Renilla reference signal, replicate 2 = 3557; Call = inactive
